Results deposited as PubChem BioAssay AID1259308 (NCATS, 2017)

Purpose: 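Candidate targets for better recombinant protein yield in mammalian cells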 (primary screen)
Cells: human HEK293 embryonic kidney cells stably expressing firefly luciferase (HEK-CMV-Luc2-Hygro)
Reagent: single siRNA against human genes, 0.8 pmol siRNA per well
Timing: 72 h
Measured: 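Reporter luminescence and viable-cell signal on separate replicate plates, given as percent of non-targeting control and median/MAD z-scores, plus per-cell luciferase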
Direction: total luciferase, z-score and total luciferase, % of control: higher = more reporter protein produced; luciferase per cell, z-score: higher = more reporter output per viable cell; viable cells, % of control: higher = more viable cells
Rule for the call: 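Active when the median/MAD z-score for overall luciferase is greater than 3; a gene was taken forward for validation with new siRNAs if at least two of its three siRNAs passed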
Calls: active = raised luciferase; inactive = no rise
This is one part, drawn at random, of about 59,000 deposited reagents. In the full data, about 1,510 (2.6%) were called active. 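Calls use total luciferase alone and ignore viability, so some active siRNAs may act by altering cell number.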 Unmarked entries are inactive. Reagents against one gene are numbered here. No sequences are given here.

gene	siRNA no.	total luciferase, z-score	total luciferase, % of control	luciferase per cell, z-score	viable cells, % of control
ZBTB9	1	-0.00883	81.7	-0.105	93.9
ZBTB9	2	-0.323	75.5	-0.506	96.4
ZBTB9	3	-0.00477	81.8	-0.226	97
PRND	1	0.586	93.5	0.0436	103
PRND	2	1.06	103	0.886	91.2
PRND	3	0.574	93.3	0.731	86
YY2	1	-0.195	78	0.0516	86
YY2	2	0.0783	83.4	0.301	86.1
YY2	3	-1.97	42.8	0.0562	47.1
CST6	1	1.25	107	0.392	108
CST6	2	-1.35	55.1	-2.06	106
CST6	3	0.663	95.1	0.283	98.6
CDC50CP	1	-0.998	62	-1.05	91.5
CDC50CP	2	0.666	95.1	1.03	81
CDC50CP	3	0.0203	82.3	-0.102	94.4
ZNF562	1	2.88	139	1.68	100
ZNF562	2	3.71 (active)	156	2.94	80.3
ZNF562	3	-0.46	72.7	-0.271	87.3
TMEM200C	1	-0.236	77.2	-0.38	95.3
TMEM200C	2	0.717	96.1	0.467	95
TMEM200C	3	-1	61.9	-1.58	105
CDC37L1	1	-0.503	71.9	-0.188	84.4
CDC37L1	2	-1.41	53.9	-1.07	79.9
CDC37L1	3	-0.151	78.9	0.239	82.8
NUFIP2	1	0.837	98.5	0.604	93.9
NUFIP2	2	2.32	128	1.4	99
NUFIP2	3	-0.889	64.2	-0.179	75.2
SCRN1	1	-1.27	56.6	0.0978	61.6
SCRN1	2	4.19 (active)	165	3.01	83.5
SCRN1	3	0.914	100	0.262	104
TCTA	1	0.276	87.4	-0.032	98.5
TCTA	2	-0.15	78.9	-0.124	91.1
TCTA	3	1.87	119	0.766	109
PPP1R16B	1	0.259	87	0.445	86.5
PPP1R16B	2	2.06	123	1.9	83.2
PPP1R16B	3	3.03 (active)	142	2.34	85.8
SELENOK	1	-0.0407	81.1	0.357	82.5
SELENOK	2	-0.0456	81	-0.184	95
SELENOK	3	-0.828	65.4	-0.971	94.4
LAMTOR2	1	0.108	84	-0.313	102
LAMTOR2	2	-0.735	67.3	-1.05	99.1
LAMTOR2	3	0.527	92.4	0.501	90.5
ZNF280B	1	1.14	105	0.756	95.8
ZNF280B	2	1.3	108	1.04	91.5
ZNF280B	3	-0.54	71.2	-0.782	97.7
KRT3	1	-2.52	31.7	-3.33	85.1
KRT3	2	-0.166	78.6	-0.538	101
KRT3	3	0.861	99	0.247	104
FSIP2	1	1.89	119	1.3	94.8
FSIP2	2	-0.101	79.9	-0.755	109
FSIP2	3	1.82	118	3.08	58.6
FSIP2	4	0.145	84.8	-0.33	103
FSIP2	5	-0.796	66.1	0.109	71.7
FSIP2	6	2.48	131	2.13	83.8
CCR5	1	-0.496	72	-0.551	93
CCR5	2	0.0322	82.5	0.313	84.9
CCR5	3	0.542	92.7	-0.181	109
